Assay results from patent publication US20100173332A1, “Method for the Fluorescent Detection of Nitroreductase Activity Using Nitro-Substituted Aromatic Compounds” (Auckland Uniservices Limited, priority 2006, published 2010).
Some entries share one result that the patent states for a list of compounds.

Sequences of proteins named here, by UniProt entry; tags and fusion partners are left off.
UniProt P15559, whole entry: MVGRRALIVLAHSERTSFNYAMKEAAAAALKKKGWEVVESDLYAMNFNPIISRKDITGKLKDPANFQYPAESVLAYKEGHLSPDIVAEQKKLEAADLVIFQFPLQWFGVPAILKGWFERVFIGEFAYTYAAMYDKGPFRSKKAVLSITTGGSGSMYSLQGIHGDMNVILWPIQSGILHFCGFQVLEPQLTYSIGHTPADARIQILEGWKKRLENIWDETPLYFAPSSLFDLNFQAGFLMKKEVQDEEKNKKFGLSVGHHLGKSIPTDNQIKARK

Legend:
[1] = biological target: T1, NADPH cytochrome P450 reductase (CYPOR) (Homo sapiens, UniProt P16435); assay: Detecting human nitroreductase activity under anoxia in MDA231 P450R cells; assay type: cell-based; details: 100 μM, 4 hr
T1 construct: expressed in transfected cells; host or cells: MDA231 (MDA-231) human breast cancer cell line, clonal derivative MDA231 P450R
T1 sequence (P16435 1-677): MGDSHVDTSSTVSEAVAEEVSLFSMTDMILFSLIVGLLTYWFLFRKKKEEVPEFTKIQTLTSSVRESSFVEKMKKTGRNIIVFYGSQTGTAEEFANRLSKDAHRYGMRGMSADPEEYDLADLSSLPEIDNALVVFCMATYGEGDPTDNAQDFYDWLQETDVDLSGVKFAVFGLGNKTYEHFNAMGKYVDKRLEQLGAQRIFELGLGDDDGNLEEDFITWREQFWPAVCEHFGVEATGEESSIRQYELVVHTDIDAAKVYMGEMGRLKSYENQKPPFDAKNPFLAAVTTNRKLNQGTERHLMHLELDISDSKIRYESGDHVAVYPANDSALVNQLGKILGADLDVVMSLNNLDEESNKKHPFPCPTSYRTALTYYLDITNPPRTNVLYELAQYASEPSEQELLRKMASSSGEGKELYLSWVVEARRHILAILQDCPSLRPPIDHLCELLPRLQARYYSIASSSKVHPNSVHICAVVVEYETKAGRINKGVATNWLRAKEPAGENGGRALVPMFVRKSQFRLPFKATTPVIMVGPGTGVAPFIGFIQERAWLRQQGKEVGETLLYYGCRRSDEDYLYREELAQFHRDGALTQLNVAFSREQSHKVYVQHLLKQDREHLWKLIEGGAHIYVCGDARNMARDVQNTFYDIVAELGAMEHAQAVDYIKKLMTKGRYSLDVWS

[2] = Aerobic/anaerobic stability in cell-free culture media (fluorescence); assay type: physicochemical
Procedure: Compounds 1-15 or methyl 7-nitrocoumarin carboxylate (methyl 7-nitro-2-oxo-2H-chromene-3-carboxylate) or 7-nitrocoumarin-3-carboylic acid or 6-chloro-9-nitro-5H-benzo[a]phenoxazin-5-one were added to a final concentration of 100 μM in cell-free culture media and were held at 37° C., 5% CO2 for 4 hr under either air or 95% N2. The fluorescence signal was monitored at 355/460 except for compounds 4 and 11 that were monitored at 405/585 and compounds 8, 10 and 6-Cl-9-nitro-5-oxo-5H-benzo[a]phenoxazine that were monitored at 355/585, 355/535 and 530/585 respectively (FIG. 12).

[3] = biological target: T2, NAD(P)H dehydrogenase quinone 1 (DT-diaphorase; NQO1) (Homo sapiens, UniProt P15559); assay: Detecting human aerobic nitroreductase activity in MDA231 DTD cells; assay type: cell-based; details: 100 μM, 4 hr
T2 construct: expressed in transfected cells; host or cells: MDA231 human breast cancer cell line, clonal derivative MDA231 DTD
Procedure: The human breast cancer cell line (MDA231^WT) and a clonal derivative (MDA231^DTD) engineered to express the human aerobic reductase, NAD(P)H dehydrogenase quinone 1 (DT-diaphorase; NQO1) under the control of a constitutive promoter were seeded into 96-well plates at a density of 1×10^5 cells/well. When samples were equilibrated to 37° C., 5% CO2 for 2 hr and compounds 1 to 15 were added to a final concentration of 100 μM for 4 hr. Test groups were cell-free culture media alone (control), MDA231^WT and MDA231^DTD. The fluorescence signal was monitored at 355/460 except for compounds 4 and 11 that were monitored at 405/585 and compounds 8 and 10 that were monitored at 355/585 and 355/535 respectively (FIG. 5).
In a further exemplification, the human breast cancer cell line (MDA231^WT) and a clonal derivative (MDA231^DTD) engineered to express the human NQO1 gene (DT-diaphorase) under the control of a constitutive promoter were seeded into 96-well tissue culture plates at 1×10^5 cells/well. Samples were equilibrated to 37° C., 5% CO2, compound (1) (6-nitro-4(1H)-quinolinone) was added to a final concentration of 300 μM. Test groups were culture media alone (control), MDA231^WT cells and MDA231^DTD cells. The rate of fluorescence signal generation at 355/460 was monitored as a function of time (FIG. 6).

COC(=O)CCCNS(=O)(=O)c1ccc2cccc([N+](=O)[O-])c2c1 [Compound 10, methyl 4-{[(8-nitro-2-naphthyl)sulfonyl]amino}butanoate]
fluorescent signal in the presence of human cytochrome P450 reductase expression when oxygen was absent ([1]; MDA231 P450R cells, anoxic (N2)): gave rise to a fluorescent signal | fluorescence in control or aerobic MDA231 P450R cultures ([1]; normoxic (air)): No detectable fluorescence | fluorescence in cell-free culture media (instability) ([2]; 100 μM, 37° C., 4 hr, air or 95% N2): no detectable fluorescence | aqueous stability under aerobic or anaerobic conditions compared with 7-nitrocoumarins and 6-chloro-9-nitro-5H-benzo[a]phenoxazin-5-one ([2]; FIG. 12): superior aqueous stability | fluorescence in control or parental MDA231 WT cultures [3]: No detectable fluorescence
